## Primary screen of a compound library

The chains behind the UniProt entries cited, without tags or fusion partners. Residues count along the entry.
UniProt Q4DA54, 1-478: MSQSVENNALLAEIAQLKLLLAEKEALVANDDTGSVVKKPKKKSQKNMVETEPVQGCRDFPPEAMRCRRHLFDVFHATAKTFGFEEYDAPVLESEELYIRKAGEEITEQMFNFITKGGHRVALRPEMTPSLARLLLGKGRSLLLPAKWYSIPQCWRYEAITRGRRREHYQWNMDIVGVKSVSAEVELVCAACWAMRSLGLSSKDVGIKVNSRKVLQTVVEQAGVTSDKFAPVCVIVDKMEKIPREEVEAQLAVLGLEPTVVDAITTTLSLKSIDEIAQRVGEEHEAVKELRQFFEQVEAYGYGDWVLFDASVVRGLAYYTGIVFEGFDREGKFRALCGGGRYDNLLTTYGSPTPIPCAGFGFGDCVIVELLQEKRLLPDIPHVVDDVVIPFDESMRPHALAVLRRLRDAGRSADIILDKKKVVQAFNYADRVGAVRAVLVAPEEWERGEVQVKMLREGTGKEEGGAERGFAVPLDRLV
UniProt P9WNZ1, whole entry: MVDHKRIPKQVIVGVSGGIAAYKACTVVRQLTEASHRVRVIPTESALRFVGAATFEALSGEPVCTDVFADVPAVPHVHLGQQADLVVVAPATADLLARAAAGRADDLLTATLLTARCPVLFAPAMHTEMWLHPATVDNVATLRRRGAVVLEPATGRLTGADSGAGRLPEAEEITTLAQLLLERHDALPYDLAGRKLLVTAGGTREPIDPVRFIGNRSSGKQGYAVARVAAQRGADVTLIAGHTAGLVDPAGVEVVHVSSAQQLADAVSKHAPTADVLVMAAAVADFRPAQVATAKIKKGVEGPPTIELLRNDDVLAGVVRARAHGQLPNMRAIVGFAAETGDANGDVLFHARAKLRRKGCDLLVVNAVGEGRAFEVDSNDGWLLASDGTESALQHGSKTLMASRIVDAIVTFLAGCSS
UniProt A4I591, 1-473: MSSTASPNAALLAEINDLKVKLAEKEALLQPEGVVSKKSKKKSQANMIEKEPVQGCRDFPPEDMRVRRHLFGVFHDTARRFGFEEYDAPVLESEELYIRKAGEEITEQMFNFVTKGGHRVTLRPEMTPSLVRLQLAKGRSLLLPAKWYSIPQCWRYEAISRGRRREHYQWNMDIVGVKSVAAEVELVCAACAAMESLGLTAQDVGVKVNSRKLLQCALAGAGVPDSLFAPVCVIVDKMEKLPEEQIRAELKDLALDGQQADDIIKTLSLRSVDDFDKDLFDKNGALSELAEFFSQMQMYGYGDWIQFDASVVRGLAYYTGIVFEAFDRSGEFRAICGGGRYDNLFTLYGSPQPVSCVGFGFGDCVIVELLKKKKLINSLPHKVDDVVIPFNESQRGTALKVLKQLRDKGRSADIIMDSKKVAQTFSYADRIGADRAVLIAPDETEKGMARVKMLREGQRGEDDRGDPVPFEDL

The filed quantity is “Percent Effect” (%). The controls that fix the scale are not given in the record; negative values are as filed. This is an unselected part of the compounds tested.

TcHisRS: 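Histidine-tRNA ligase, Trypanosoma cruzi CL Brener (UniProt Q4DA54). Enzyme assay of histidyl-tRNA synthetase; the read-out is not stated. Tested at 30 µM. The record gives no direction; compounds that gave an IC50 in retests scored well above the rest, so higher reads as stronger inhibition. Size under these conditions: about 69,000 compounds, about 31 of them at 50% or above in at least one test.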
CoaBC: 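Coenzyme A biosynthesis protein CoaBC, Mycobacterium tuberculosis (UniProt P9WNZ1). Enzyme assay of CoaBC with a phosphate dye (Biomol Green) read at 650 nm. Concentration: 30 µM. Direction is inferred from only a few compounds that gave an IC50; most scored high, so higher reads as stronger inhibition. Most strong results did not repeat in a second test. Size under these conditions: about 67,000 compounds, about 40 of them at 50% or above in at least one test.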
LiHisRS: 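Histidine-tRNA ligase, Leishmania infantum (UniProt A4I591). Enzyme assay of histidyl-tRNA synthetase; the read-out is not stated. Concentration: 30 µM. The record gives no direction; compounds that gave an IC50 in retests scored well above the rest, so higher reads as stronger inhibition. The assay is labelled LdHisRS but filed under L. infantum. Size under these conditions: about 69,000 compounds, about 410 of them at 50% or above in at least one test.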

Cc1csc(CCNc2ccc(C#N)cn2)n1 read TcHisRS: 4.082%; CoaBC: 1.873%; LiHisRS: 11.57%. For CNC(=O)c1cc2c(nc1NCC(C)C)CCN(S(=O)(=O)C1CC1)CC2 the result was TcHisRS: 0%; CoaBC: 4.846%; LiHisRS: 11.32%. With CCN(C)C(=O)CCC(=O)c1cccs1 the screen gave TcHisRS: -2.041%; CoaBC: 5.697%; LiHisRS: 6.452%. For CC(C)=CCCC1(C)CCC(=O)N(CCNc2nc(C)cc(=O)[nH]2)C1 (configuration not stated) the result was TcHisRS: 0.4292%; CoaBC: 1.555%; LiHisRS: 13.11%. For Cn1cc(CN2CCC(c3cc(COc4ccc(Cl)cc4)[nH]n3)C2)cn1 (configuration not stated) the result was TcHisRS: 22.61%; CoaBC: 2.632%; LiHisRS: 37.41%. For Cc1cc(N2Cc3cnn(CCO)c3C2)nc(-c2ccccc2)n1 the result was TcHisRS: 8.995%; CoaBC: 4.175%; LiHisRS: 6.667%. For CCN(Cc1ccc(C#N)cc1F)C(=O)C(C)(C)C the result was TcHisRS: 1.604%; CoaBC: 6.087%; LiHisRS: 8.901%.

Cc1cnn(CC2CCCN2C(=O)c2cnc3n[nH]c(C)c3c2)c1 (configuration not stated) gave TcHisRS: -3.383%; CoaBC: 11.75%; LiHisRS: 24.32%. For CCN(CC)c1ccc(NS(=O)(=O)c2cnn(C)c2)cn1 the result was TcHisRS: 2.479%; CoaBC: 10.11%; LiHisRS: 15.24%. With CCc1ccsc1CNC(=O)CNC(=O)C(C)(C)C the screen gave TcHisRS: 15.87%; CoaBC: -0.2066%; LiHisRS: 10.96%. Cc1ccc2nc(C)c(C)c(C(=O)NCCCn3cnnc3)c2c1 read TcHisRS: 7.778%; CoaBC: -10.5%; LiHisRS: 16.24%. O=C(c1cccnc1)N1CCc2[nH]nc(Nc3ccccc3)c2C1 gave TcHisRS: 3.788%; CoaBC: -11.34%; LiHisRS: 8.451%. With CCN(CC)C(=O)c1nnn(-c2ccc(C)cc2)c1C1CC1 the screen gave TcHisRS: -1.149%; CoaBC: 11.13%; LiHisRS: 15.38%. With Cc1cc(-c2cc3nc(C)c(C)c(NCC4COCCO4)n3n2)no1 (configuration not stated) the screen gave TcHisRS: 2.825%; CoaBC: 6.053%; LiHisRS: 4.196%.

With CCC1C(=O)NCCN1c1cc(C)ncn1 (configuration not stated) the screen gave TcHisRS: 6.098%; CoaBC: 5.19%; LiHisRS: 1.205%. With CC(=O)N1CCC(C(=O)NCCN2CCC(C)CC2)CC1 the screen gave TcHisRS: 1.626%; CoaBC: 1.266%; LiHisRS: 18.27%. CS(=O)(=O)C1(CNCc2cccc(-n3cccn3)c2)CCOCC1 gave TcHisRS: 3.704%; CoaBC: -4.573%; LiHisRS: 4%. With COCCN(Cc1ccccc1)Cc1csc(-c2ncccn2)n1 the screen gave TcHisRS: 1.571%; CoaBC: 6.21%; LiHisRS: -3.448%. Result for Cn1ccn2ncc(C(=O)NCc3cccnc3N3CCCC(O)C3)c12 (configuration not stated) was TcHisRS: -4.878%; CoaBC: 3.165%; LiHisRS: 3.614%. CSc1nc(C2CC2)nc(C)c1C(=O)NCc1ccco1 gave TcHisRS: 9.877%; CoaBC: -1.966%; LiHisRS: 0%. Result for O=C(O)c1ccccc1C1CCN(Cc2ccc(-c3cc[nH]n3)o2)C1 (configuration not stated) was TcHisRS: 21%; CoaBC: 5.455%; LiHisRS: 30.61%.

Result for Cc1nc(Nc2nccs2)cc(C2CCCN2)n1 (configuration not stated) was TcHisRS: 3.788%; CoaBC: -14.45%; LiHisRS: 5.797%. CC(=O)N1CCc2cc(C(=O)O)c(-c3ccsc3)nc2CC1 read TcHisRS: 1.266%; LiHisRS: 20.69%. CCn1cc(CNC2CCN(c3cccc(C)c3C)CC2)cn1 gave TcHisRS: 4.972%; CoaBC: -27.67%; LiHisRS: 4.819%. CC1(C)CN(C(=O)Nc2ccc(Cn3cccn3)cc2)CCO1 gave TcHisRS: 5.952%; CoaBC: 1.225%; LiHisRS: 8.889%. With OCCN1CCOC2(CCCN(c3cccc(F)c3)C2)C1 (configuration not stated) the screen gave TcHisRS: 3.825%; CoaBC: -2.591%; LiHisRS: 15.33%. CNC(=O)C1(c2cnccn2)CCCN1C(=O)c1cccnc1OC (configuration not stated) gave TcHisRS: 11.11%; CoaBC: 2.906%; LiHisRS: 18.56%. For Cc1nc2c(C#N)cnn2c(C)c1CCC(=O)N(C)C(C)C(C)C (configuration not stated) the result was TcHisRS: 6.627%; CoaBC: 1.341%; LiHisRS: 17.58%.

Result for Cc1cc(N2CCC(Cc3ccccc3)CC2)nc(-c2ccncc2)n1 was TcHisRS: 14.83%; CoaBC: 15.28%; LiHisRS: 62.5%. C[S+]([O-])c1nncn1CC(=O)c1ccc(Br)cc1 (configuration not stated) read TcHisRS: 3.488%; CoaBC: -0.8584%; LiHisRS: 4.918%.

2 of the entries, repeated:

CCC1C(=O)NCCN1c1cc(C)ncn1 (configuration not stated) read TcHisRS: 6.098%; CoaBC: 5.19%; LiHisRS: 1.205%.
Cc1csc(CCNc2ccc(C#N)cn2)n1 read TcHisRS: 4.082%; CoaBC: 1.873%; LiHisRS: 11.57%.

Measurements from “University of Dundee, Small-Polar-MMV Screening Library” (2021), ChEMBL document CHEMBL3988442.